# According to the supplement of paper PMC8728848:
# The other results are listed elsewhere or left out.
# B1: Tim-4 (Mus musculus), Q6U7R4 (protein)
# chain: MSKGLLLLWLVTELWWLYLTPAASEDTIIGFLGQPVTLPCHYLSWSQSRNSMCWGKGSCPNSKCNAELLRTDGTRIISRKSTKYTLLGKVQFGEVSLTISNTNRGDSGVYCCRIEVPGWFNDVKKNVRLELRRATTTKKPTTTTRPTTTPYVTTTTPELLPTTVMTTSVLPTTTPPQTLATTAFSTAVTTCPSTTPGSFSQETTKGSAFTTESETLPASNHSQRSMMTISTDIAVLRPTGSNPGILPSTSQLTTQKTTLTTSESLQKTTKSHQINSRQTILIIACCVGFVLMVLLFLAFLLRGKVTGANCLQRHKRPDNTEDSDSVLNDMSHGRDDEDGIFTL
# Legend:
# Assay in all cases: glycan array binding signal (z-score within array); higher = stronger binding
# Settings in all cases: glycan notation: IUPAC condensed, linker removed
# [1] = molecular target: Neu5Ac(a2-3)Gal(b1-3)[Neu5Ac(a2-6)]GalNAc
# How it was run: (§1)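 Negative Z-scores can be read as non-binding. The Z-score is calculated within each array and then averaged across arrays of one protein sequence at different concentrations or buffers and across linkers. Arrays, 3228 in all, were curated from the Consortium for Functional Glycomics database and kept only where the protein sequence was available.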
# Neu5Ac(a2-3)Gal(b1-4)Glc = molecular target: Neu5Ac(a2-3)Gal(b1-4)Glc
# How it was run: as §1
# [2] = molecular target: Neu5Ac(a2-3)Gal(b1-4)GlcNAc
# How it was run: as §1
# [3] = molecular target: Neu5Ac(a2-3)Gal(b1-4)GlcNAc(b1-3)Gal(b1-3)GlcNAc
# How it was run: as §1
# [4] = molecular target: Neu5Ac(a2-3)Gal(b1-4)GlcNAc(b1-3)Gal(b1-4)GlcNAc
# How it was run: as §1
# [5] = molecular target: Neu5Ac(a2-3)Gal(b1-4)GlcNAc(b1-3)Gal(b1-4)GlcNAc(b1-3)Gal(b1-4)GlcNAc
# How it was run: as §1
# [6] = molecular target: Neu5Ac(a2-3)Gal(b1-4)GlcNAc(b1-3)Gal(b1-4)[Fuc(a1-3)]GlcNAc
# How it was run: as §1
# [7] = molecular target: Neu5Ac(a2-3)Gal(b1-4)GlcNAc(b1-6)[Gal(b1-3)]GalNAc
# How it was run: as §1
# [8] = molecular target: Neu5Ac(a2-3)Gal(b1-4)GlcNAc6S
# How it was run: as §1
# [9] = molecular target: Neu5Ac(a2-3)Gal(b1-4)[Fuc(a1-3)]GlcNAc
# How it was run: as §1
# [10] = molecular target: Neu5Ac(a2-3)Gal(b1-4)[Fuc(a1-3)]GlcNAc(b1-3)Gal
# How it was run: as §1
# [11] = molecular target: Neu5Ac(a2-3)Gal(b1-4)[Fuc(a1-3)]GlcNAc(b1-3)Gal(b1-4)GlcNAc
# How it was run: as §1
# [12] = molecular target: Neu5Ac(a2-3)Gal(b1-4)[Fuc(a1-3)]GlcNAc(b1-3)Gal(b1-4)[Fuc(a1-3)]GlcNAc(b1-3)Gal(b1-4)[Fuc(a1-3)]GlcNAc
# How it was run: as §1
# [13] = molecular target: Neu5Ac(a2-3)Gal(b1-4)[Fuc(a1-3)]GlcNAc6S
# How it was run: as §1
# [14] = molecular target: Neu5Ac(a2-3)Gal6S(b1-4)GlcNAc
# How it was run: as §1
# [15] = molecular target: Neu5Ac(a2-3)Gal6S(b1-4)[Fuc(a1-3)]GlcNAc
# How it was run: as §1
# Neu5Ac(a2-3)GalNAc = molecular target: Neu5Ac(a2-3)GalNAc
# How it was run: as §1
# [16] = molecular target: Neu5Ac(a2-3)GalNAc(b1-4)GlcNAc
# How it was run: as §1
# [17] = molecular target: Neu5Ac(a2-3)[GalNAc(b1-4)]Gal(b1-4)Glc
# How it was run: as §1
# [18] = molecular target: Neu5Ac(a2-3)[GalNAc(b1-4)]Gal(b1-4)GlcNAc
# How it was run: as §1
# [19] = molecular target: Neu5Ac(a2-3)[Neu5Ac(a2-6)]GalNAc
# How it was run: as §1
# [20] = molecular target: Neu5Ac(a2-6)Gal(b1-4)GlcNAc
# How it was run: as §1
# [21] = molecular target: Neu5Ac(a2-6)Gal(b1-4)GlcNAc(b1-2)Man(a1-3)[Neu5Ac(a2-6)Gal(b1-4)GlcNAc(b1-2)Man(a1-6)]Man(b1-4)GlcNAc(b1-4)GlcNAc
# How it was run: as §1
# [22] = molecular target: Neu5Ac(a2-6)Gal(b1-4)GlcNAc(b1-3)Gal(b1-4)GlcNAc
# How it was run: as §1
# [23] = molecular target: Neu5Ac(a2-6)Gal(b1-4)GlcNAc(b1-3)Gal(b1-4)[Fuc(a1-3)]GlcNAc(b1-3)Gal(b1-4)[Fuc(a1-3)]GlcNAc
# How it was run: as §1
# [24] = molecular target: Neu5Ac(a2-6)Gal(b1-4)GlcNAc6S
# How it was run: as §1
# Neu5Ac(a2-6)GalNAc = molecular target: Neu5Ac(a2-6)GalNAc
# How it was run: as §1
# [25] = molecular target: Neu5Ac(a2-6)GalNAc(b1-4)GlcNAc
# How it was run: as §1
# Neu5Ac(a2-8)Neu5Ac = molecular target: Neu5Ac(a2-8)Neu5Ac
# How it was run: as §1
# [26] = molecular target: Neu5Ac(a2-8)Neu5Ac(a2-3)Gal(b1-4)Glc
# How it was run: as §1
# [27] = molecular target: Neu5Ac(a2-8)Neu5Ac(a2-3)[GalNAc(b1-4)]Gal(b1-4)Glc
# How it was run: as §1
# [28] = molecular target: Neu5Ac(a2-8)Neu5Ac(a2-8)Neu5Ac
# How it was run: as §1
# [29] = molecular target: Neu5Ac(a2-8)Neu5Ac(a2-8)Neu5Ac(a2-3)Gal(b1-4)Glc
# How it was run: as §1
# [30] = molecular target: Neu5Ac(a2-8)Neu5Ac(a2-8)Neu5Ac(a2-3)[GalNAc(b1-4)]Gal(b1-4)Glc
# How it was run: as §1
# [31] = molecular target: Neu5Ac(a2-8)Neu5Ac(a2-8)Neu5Ac(a2-8)Neu5Ac(a2-3)[GalNAc(b1-4)]Gal(b1-4)Glc
# How it was run: as §1
# [32] = molecular target: Neu5Ac9Ac(a2-6)Gal(b1-4)GlcNAc
# How it was run: as §1
# [33] = molecular target: Neu5Gc(a2-3)Gal(b1-3)GlcNAc
# How it was run: as §1
# [34] = molecular target: Neu5Gc(a2-3)Gal(b1-3)[Fuc(a1-4)]GlcNAc
# How it was run: as §1
# Neu5Gc(a2-3)Gal(b1-4)Glc = molecular target: Neu5Gc(a2-3)Gal(b1-4)Glc
# How it was run: as §1
# [35] = molecular target: Neu5Gc(a2-3)Gal(b1-4)GlcNAc
# How it was run: as §1
# [36] = molecular target: Neu5Gc(a2-3)Gal(b1-4)[Fuc(a1-4)]GlcNAc
# How it was run: as §1
# [37] = molecular target: Neu5Gc(a2-6)Gal(b1-4)GlcNAc
# How it was run: as §1
# Neu5Gc(a2-6)GalNAc = molecular target: Neu5Gc(a2-6)GalNAc
# How it was run: as §1
binder,measurement,setting,value
B1,glycan array binding signal (z-score),[1],-0.613
same,glycan array binding signal (z-score),Neu5Ac(a2-3)Gal(b1-4)Glc,-0.082
same,glycan array binding signal (z-score),[2],-0.376
same,glycan array binding signal (z-score),[3],-0.882
same,glycan array binding signal (z-score),[4],-0.482
same,glycan array binding signal (z-score),[5],-0.695
same,glycan array binding signal (z-score),[6],-0.452
same,glycan array binding signal (z-score),[7],-0.248
same,glycan array binding signal (z-score),[8],-0.51
same,glycan array binding signal (z-score),[9],-0.657
same,glycan array binding signal (z-score),[10],-0.474
same,glycan array binding signal (z-score),[11],0.265
same,glycan array binding signal (z-score),[12],-0.207
same,glycan array binding signal (z-score),[13],-0.889
same,glycan array binding signal (z-score),[14],-0.06
same,glycan array binding signal (z-score),[15],-0.754
same,glycan array binding signal (z-score),Neu5Ac(a2-3)GalNAc,-0.538
same,glycan array binding signal (z-score),[16],-0.624
same,glycan array binding signal (z-score),[17],-0.529
same,glycan array binding signal (z-score),[18],-0.509
same,glycan array binding signal (z-score),[19],-0.437
same,glycan array binding signal (z-score),[20],-0.403
same,glycan array binding signal (z-score),[21],-0.414
same,glycan array binding signal (z-score),[22],-0.645
same,glycan array binding signal (z-score),[23],-0.155
same,glycan array binding signal (z-score),[24],0.128
same,glycan array binding signal (z-score),Neu5Ac(a2-6)GalNAc,-0.265
same,glycan array binding signal (z-score),[25],-0.146
same,glycan array binding signal (z-score),Neu5Ac(a2-8)Neu5Ac,-0.484
same,glycan array binding signal (z-score),[26],-0.726
same,glycan array binding signal (z-score),[27],-0.76
same,glycan array binding signal (z-score),[28],-0.829
same,glycan array binding signal (z-score),[29],-0.545
same,glycan array binding signal (z-score),[30],1.32
same,glycan array binding signal (z-score),[31],-0.463
same,glycan array binding signal (z-score),[32],-0.34
same,glycan array binding signal (z-score),[33],0.286
same,glycan array binding signal (z-score),[34],-0.22
same,glycan array binding signal (z-score),Neu5Gc(a2-3)Gal(b1-4)Glc,0.064
same,glycan array binding signal (z-score),[35],0.053
same,glycan array binding signal (z-score),[36],0.082
same,glycan array binding signal (z-score),[37],-0.113
same,glycan array binding signal (z-score),Neu5Gc(a2-6)GalNAc,0.227

# Reprinted from the entries so far for reference:
binder,measurement,setting,value
B1,glycan array binding signal (z-score),[7],-0.248
same,glycan array binding signal (z-score),[8],-0.51
same,glycan array binding signal (z-score),[9],-0.657
same,glycan array binding signal (z-score),[10],-0.474
same,glycan array binding signal (z-score),[11],0.265
same,glycan array binding signal (z-score),[12],-0.207
same,glycan array binding signal (z-score),[13],-0.889
same,glycan array binding signal (z-score),[14],-0.06
same,glycan array binding signal (z-score),[15],-0.754
same,glycan array binding signal (z-score),Neu5Ac(a2-3)GalNAc,-0.538
